Reference: PubChem BioAssay AID1159584 (Peter MacCallum Cancer Centre, 2016)
The deposit covers about 18,000 reagents; this is a random part of them. Reagent sequences are not shown. The record does not give: the amount of reagent, the time to read-out.

Assay: 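Genes whose loss is lethal only together with E-cadherin loss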 (primary screen)
Cell system: human MCF10A breast epithelial cells, parental and CDH1-null
Knock-down reagent: siRNA against human genes
Measurement: 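Cell viability by CellTiter-Glo ATP luminescence, each line scaled to the mean of mock wells across plates, then CDH1-null over parental ratio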
Direction: CDH1-null / parental viability ratio: higher = CDH1-null cells survive relatively better than parental; CDH1-null viability vs mock: higher = more viable CDH1-null cells; parental viability vs mock: higher = more viable parental cells

gene	CDH1-null / parental viability ratio	CDH1-null viability vs mock (fraction of mock)	parental viability vs mock (fraction of mock)
UGT2B11	1.15	1	0.87
RPS20	1.36	0.3	0.22
TMOD2	1.46	0.67	0.46
OR4D11	0.91	0.86	0.94
AGTR2	1.48	0.92	0.62
MCC	1.13	0.88	0.78
TMED8	0.77	0.34	0.44
TFF3	1.05	1.07	1.02
RBMX2	0.81	0.42	0.52
DUSP14	1.39	1.06	0.76
CTBP1-DT	1.13	0.62	0.55
UQCRB	0.99	1.04	1.05
CCR1	0.85	0.8	0.94
PSMG2	1.05	0.68	0.65
CCNT2	0.97	0.67	0.69
WDR36	1.19	0.7	0.59
NDUFV2	0.94	0.74	0.79
OR5P2	1.19	0.86	0.72
HSF4	0.94	0.49	0.52
DCAF15	0.97	0.97	1
MEF2A	0.88	0.92	1.04
AASDH	1.04	1.12	1.08
SLA2	0.92	0.74	0.8
SLC22A10	0.94	0.78	0.83
ZNF416	1.01	0.93	0.92
RAD50	1.17	0.97	0.83
PITHD1	0.73	0.52	0.71
ZNF532	1.14	0.66	0.58
PRDM8	1	0.24	0.24
GPR161	0.83	0.48	0.58
LRCH1	0.92	0.84	0.91
GMFB	1.28	1.15	0.9
PMVK	0.63	0.36	0.57
MAGEB18	0.9	0.78	0.87
PNPT1	0.84	0.68	0.81
KCNE3	1.39	1.1	0.79
RASGEF1C	1.18	0.86	0.73
KCNAB1	1.2	1.1	0.92
IL12B	1.16	1.02	0.88
RORA	0.95	0.74	0.78
ZNF600	0.91	0.8	0.88
KHDRBS1	0.88	0.71	0.81
DRC3	0.95	0.84	0.88
ZNF350	0.91	0.78	0.86
F3	1.05	0.99	0.94

4 of these entries in another layout:
{"gene": "RBMX2", "CDH1-null / parental viability ratio": 0.81, "CDH1-null viability vs mock (fraction of mock)": 0.42, "parental viability vs mock (fraction of mock)": 0.52}
{"gene": "DUSP14", "CDH1-null / parental viability ratio": 1.39, "CDH1-null viability vs mock (fraction of mock)": 1.06, "parental viability vs mock (fraction of mock)": 0.76}
{"gene": "CTBP1-DT", "CDH1-null / parental viability ratio": 1.13, "CDH1-null viability vs mock (fraction of mock)": 0.62, "parental viability vs mock (fraction of mock)": 0.55}
{"gene": "UQCRB", "CDH1-null / parental viability ratio": 0.99, "CDH1-null viability vs mock (fraction of mock)": 1.04, "parental viability vs mock (fraction of mock)": 1.05}

The list goes on.
gene	CDH1-null / parental viability ratio	CDH1-null viability vs mock (fraction of mock)	parental viability vs mock (fraction of mock)
TRMU	1.03	0.95	0.92
GOLM2	0.73	0.72	0.98
PTPRN2	1.18	1.06	0.9
ITPR2	1.3	0.96	0.74
CNTNAP2	1.24	1.34	1.08
RASGRP4	0.95	0.76	0.8
HAS1	1.48	0.68	0.46
SUPT3H	1.03	1.21	1.17
MAP3K10	1.04	0.87	0.84
OAZ2	0.81	0.79	0.98
CLDN15	1.34	0.67	0.5
DACH2	0.92	0.68	0.74
CSF1	1.06	0.93	0.88
OR10J3	1.39	0.92	0.66
ZNF528	0.62	0.3	0.48
CCL23	1.25	0.84	0.67
QKI	0.94	0.73	0.78
ZNF768	0.98	0.78	0.8
FANCL	0.97	0.98	1.01
CENPP	1.04	0.52	0.5
COX17	0.73	0.58	0.79
CHCHD4	1.12	0.9	0.8
KLHL31	0.96	0.79	0.82
